Among the data in article PMC9456563 are binding values, retold here.

Sequences of proteins named here, by UniProt entry; tags and fusion partners are left off.
UniProt O95260: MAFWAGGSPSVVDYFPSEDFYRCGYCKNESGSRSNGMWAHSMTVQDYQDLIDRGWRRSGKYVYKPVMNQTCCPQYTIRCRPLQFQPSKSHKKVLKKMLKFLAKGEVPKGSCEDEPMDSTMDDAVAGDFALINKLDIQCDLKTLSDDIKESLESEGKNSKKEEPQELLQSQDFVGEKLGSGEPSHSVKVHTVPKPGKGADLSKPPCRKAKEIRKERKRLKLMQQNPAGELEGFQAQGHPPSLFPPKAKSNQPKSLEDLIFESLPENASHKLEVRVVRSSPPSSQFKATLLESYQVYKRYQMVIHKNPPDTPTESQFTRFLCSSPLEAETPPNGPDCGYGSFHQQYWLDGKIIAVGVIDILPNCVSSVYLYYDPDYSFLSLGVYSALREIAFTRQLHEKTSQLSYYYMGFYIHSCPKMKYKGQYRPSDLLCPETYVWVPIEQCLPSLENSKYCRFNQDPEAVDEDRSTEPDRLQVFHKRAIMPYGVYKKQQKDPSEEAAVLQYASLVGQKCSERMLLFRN

This assay deals with T1, short RARS (arginyl-tRNA synthetase, short isoform), overexpressed in HEK293T (UniProt P54136).
T1 sequence: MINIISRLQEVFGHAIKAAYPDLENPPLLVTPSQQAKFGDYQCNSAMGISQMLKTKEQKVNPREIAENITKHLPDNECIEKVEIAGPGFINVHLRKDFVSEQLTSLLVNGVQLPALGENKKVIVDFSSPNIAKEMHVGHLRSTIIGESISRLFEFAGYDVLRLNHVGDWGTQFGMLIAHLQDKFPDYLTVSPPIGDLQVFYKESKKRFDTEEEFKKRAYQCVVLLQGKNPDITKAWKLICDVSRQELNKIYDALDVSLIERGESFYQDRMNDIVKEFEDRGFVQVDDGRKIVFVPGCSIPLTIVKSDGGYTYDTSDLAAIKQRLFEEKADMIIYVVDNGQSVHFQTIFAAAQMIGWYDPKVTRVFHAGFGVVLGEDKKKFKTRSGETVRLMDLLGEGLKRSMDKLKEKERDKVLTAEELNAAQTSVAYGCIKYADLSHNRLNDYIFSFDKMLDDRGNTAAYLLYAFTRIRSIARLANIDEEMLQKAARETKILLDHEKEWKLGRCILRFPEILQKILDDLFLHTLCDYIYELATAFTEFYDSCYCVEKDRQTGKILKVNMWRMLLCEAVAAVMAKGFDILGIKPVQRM
Briefly: co-IP; anti-RARS antibody (orb247357 Biorbyt) and Protein A agarose from lysates of HEK293T cells transfected with the long or the short RARS; lysis buffer 50 mM Tris-HCl pH 7.5, 150 mM NaCl, 0.1% Triton X-100; room temperature; blot with ATE1 antibodies.

These are yes or no findings as the source states them, for the method shown. In cells and extracts the contact can be indirect. Some results given as binding are weak or reduced against the parent protein; the word gives no strength.

For the substance “arginyltransferase ATE1 (from UniProt O95260 1-518) (enzyme)”, the binding entry is “binds weakly”.
